# For some assays here: A weaker result is weaker than the reference pair of the same experiment. For some assays here: Where cells or extracts were used, other partners may take part. For some assays here: A negative result means that nothing was seen under these conditions. For some assays here: Tags and fusion partners may be left off the protein sequences shown.
# Assays:
# [1] = test system: NCAMP-1 (histone H1X-like ODN binding protein), recombinant (Ictalurus punctatus); assay: binding assay; settings: Southwestern blot; minimal binding, used as negative control; purified recombinant protein; protein details: C-terminal 6xHis (pET-21b, E. coli); label: biotin; single-stranded DNA
# [2] = test system: T1, NCAMP-1 (native 29 kDa NCC membrane protein) (Ictalurus punctatus); assay: binding assay; settings: protein in an extract, single-stranded DNA
# T1 sequence: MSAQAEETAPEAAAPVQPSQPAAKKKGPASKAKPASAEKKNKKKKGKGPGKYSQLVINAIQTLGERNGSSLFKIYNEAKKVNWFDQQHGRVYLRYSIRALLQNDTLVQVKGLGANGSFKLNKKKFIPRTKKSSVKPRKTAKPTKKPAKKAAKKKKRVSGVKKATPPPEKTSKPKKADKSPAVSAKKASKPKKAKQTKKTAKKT
# [3] = test system: T2, NCAMP-1 on the surface of nonspecific cytotoxic cells (Ictalurus punctatus); assay: competition with a labelled probe; settings: protein on the cell surface, single-stranded DNA
# T2 sequence: T1 sequence
Sequence,binding result [1],"binding result ([2]; ligand blot of NCC membranes, 29 kDa band absent, label: biotin)","binding result ([3]; dA20 does not prevent anti-NCAMP-1 binding to NCC, label: biotin)","binding result ([2]; Southwestern blot of NCC membrane lysate, 14, 16, 18 and 29 kDa bands, label: biotin (3'))","binding result ([3]; reciprocal competition with anti-NCAMP-1 IgG on NCC, flow cytometry, label: biotin (3'))"
AAAAAAAAAAAAAAAAAAAA [dA20],binds more weakly,no binding,no binding,,
TGCTGCTTGTGCTTGTGCTT [GpC ODN],,,,binds,binds

# — US20090311278A1, “Novel teleost derived antimicrobial polypeptides” (THE UNIVERSITY OF GEORGIA RESEARCH FOUNDATION, published 2009)
